Experimental findings from paper PMC11208920, “The binding of LARP6 and DNAAF6 in biomolecular condensates influences ciliogenesis of multiciliated cells” are described below.

These are yes or no findings as the source states them, for the method shown. In cells and extracts the contact can be indirect. Binding calls can cover weak binding; strength is not graded here. Tags and fused reporters may be left off the sequences shown.

The target of assay [1] is Xenopus LARP6-2HA (Xenopus laevis). In words: co-IP; protein extracts of Xenopus embryos (stage 10 or stage 20) expressing tagged proteins; 0.5% Triton X lysate buffer, antibody 1 h at room temperature; xLARP6-2HA immunoprecipitated, Flag-tagged DNAAF6 forms analysed in the precipitate.
The target of assay [2] is HA-tagged La motif (LAM) of human LARP6 (human). Kind of assay: co-IP; HEK293T cells transfected with tagged proteins; HA-tagged LARP6 forms immunoprecipitated from cleared lysate (0.5% NP-40 lysis buffer, 4 °C, protein A/G-agarose), Flag-tagged DNAAF6 analysed in the precipitate.

B1: Flag-tagged human DNAAF6 Q171∗ (expressed in Xenopus embryos) (domain or fragment, UniProt Q9NQM4 1-170)
chain: MESENMDSENMKTENMESQNVDFESVSSVTALEALSKLLNPEEEDDSDYGQTNGLSTIGAMGPGNIGPPQIEELKVIPETSEENNEDIWNSEEIPEGAEYDDMWDVREIPEYEIIFRQQVGTEDIFLGLSKKDSSTGCCSELVAKIKLPNTNPSDIQIDIQETILDLRTP
As for B1, the binding result in assay [1] is “binds”.

B2: Flag-tagged human DNAAF6 WT (expressed in Xenopus embryos) (protein, UniProt Q9NQM4 1-214)
chain: MESENMDSENMKTENMESQNVDFESVSSVTALEALSKLLNPEEEDDSDYGQTNGLSTIGAMGPGNIGPPQIEELKVIPETSEENNEDIWNSEEIPEGAEYDDMWDVREIPEYEIIFRQQVGTEDIFLGLSKKDSSTGCCSELVAKIKLPNTNPSDIQIDIQETILDLRTPQKKLLITLPELVECTSAKAFYIPETETLEITMTMKRELDIANFF
With B2, the binding result in assay [1] was “binds”.

B3: Flag-tagged human DNAAF6 (expressed in HEK293T cells) (protein, UniProt Q9NQM4 1-214)
chain: B2 chain
As for B3, the binding entry in assay [2] is “binds”.
